One experiment concerns the target T1, CAPRIN-1 protein (UniProt Q14444).
T1 sequence (looked up): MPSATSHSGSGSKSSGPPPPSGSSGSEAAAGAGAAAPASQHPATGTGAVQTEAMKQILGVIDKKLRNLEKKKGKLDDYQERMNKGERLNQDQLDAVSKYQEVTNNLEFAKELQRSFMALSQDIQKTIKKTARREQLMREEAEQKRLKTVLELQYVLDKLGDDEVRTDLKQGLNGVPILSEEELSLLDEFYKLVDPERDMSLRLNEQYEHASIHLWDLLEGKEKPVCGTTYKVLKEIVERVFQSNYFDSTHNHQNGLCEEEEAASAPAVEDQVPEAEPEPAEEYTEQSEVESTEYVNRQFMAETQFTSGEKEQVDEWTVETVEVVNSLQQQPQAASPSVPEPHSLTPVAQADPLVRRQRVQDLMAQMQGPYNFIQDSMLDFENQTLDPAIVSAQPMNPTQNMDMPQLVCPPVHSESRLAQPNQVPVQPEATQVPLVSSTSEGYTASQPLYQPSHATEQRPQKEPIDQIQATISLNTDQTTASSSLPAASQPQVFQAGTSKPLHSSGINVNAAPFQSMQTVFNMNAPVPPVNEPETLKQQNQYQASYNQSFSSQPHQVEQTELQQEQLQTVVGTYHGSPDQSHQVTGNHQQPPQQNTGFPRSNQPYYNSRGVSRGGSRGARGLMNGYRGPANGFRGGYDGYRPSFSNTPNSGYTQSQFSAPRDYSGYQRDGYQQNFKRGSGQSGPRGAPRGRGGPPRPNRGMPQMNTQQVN
Description: ELISA.

The target of experiment [1] is T2, CAPRIN-1 protein on the cell membrane surface of cancer cells (UniProt Q14444).
T2 sequence (looked up): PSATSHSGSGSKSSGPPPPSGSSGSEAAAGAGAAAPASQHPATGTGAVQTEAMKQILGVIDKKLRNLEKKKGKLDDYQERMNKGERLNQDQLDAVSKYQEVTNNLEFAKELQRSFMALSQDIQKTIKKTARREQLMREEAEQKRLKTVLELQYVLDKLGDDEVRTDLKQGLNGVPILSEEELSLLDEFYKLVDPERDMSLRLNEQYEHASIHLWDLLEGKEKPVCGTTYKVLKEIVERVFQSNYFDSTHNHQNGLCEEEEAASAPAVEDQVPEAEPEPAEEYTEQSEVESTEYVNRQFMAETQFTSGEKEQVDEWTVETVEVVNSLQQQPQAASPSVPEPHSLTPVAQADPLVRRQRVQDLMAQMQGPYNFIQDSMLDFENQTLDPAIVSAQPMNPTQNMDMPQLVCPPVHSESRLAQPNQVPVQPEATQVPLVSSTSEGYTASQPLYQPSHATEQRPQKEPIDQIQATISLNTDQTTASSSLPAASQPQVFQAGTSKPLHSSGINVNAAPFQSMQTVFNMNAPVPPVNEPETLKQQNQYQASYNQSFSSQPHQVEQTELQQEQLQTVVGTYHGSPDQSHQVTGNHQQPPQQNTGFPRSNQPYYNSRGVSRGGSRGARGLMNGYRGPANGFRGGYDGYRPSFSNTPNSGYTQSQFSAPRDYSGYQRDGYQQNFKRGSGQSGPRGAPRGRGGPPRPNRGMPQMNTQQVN
In words: flow cytometry. A general note: A flow cytometer gives signals particle by particle.

No constants are given. Whether binding was seen depends on the method and setting. Some entries that bind do so weakly or less than the wild type.

B1: Conjugate 149 (antibody, human IgG1, V domains shown)
VH: DAELVKPGASVKISCKASGYTFTDHSIHWVQQKPEQGLEWIGYISPGNGNIKYNEKFKGKATLTADKSSSTAYMQLNSLTSEDSAVYFCKRSLGRGGPYYFDYWGQGTTVTVSS
VL: DIVLTQAAPSLPVTPGESVSISCRSSKSLLHSNGNTYLYWFLQRPGQSPQLLIYRMSNLASGVPDRFSGSGSGTAFTLRISRVEAEDVGVYYCMQHREYPVTFGSGPN
With B1, the binding result (in the experiment with CAPRIN-1 protein; in experiment [1]) was “binds” in each case.

B2: Conjugate 138 (antibody, human IgG1, V domains shown)
VH: EVQLVESGGGLVQPGGSLRLSCAASGFSLSSHSLGWVRQAPGKGLEWIGDIRSGGSAYYANWAKGRFTISRDNSKNTLYLQMNSLRAEDTAVYYCTRTNGPSDLTNRLDLWGQGTLVTVSS
VL: QVLTQSPSSLSASVGDRVTINCQASQSLYNNENLAWFQQKPGKVPKRLIYGASTLASGVSSRFSGSGSGTEFTLTISSLQCEDFAIYYCLGEFSCGSADCFAFGGGTKVEIK
Take B2: the binding entry (with CAPRIN-1 protein; in experiment [1]) was “binds” each time.

B3: Conjugate 172 (antibody, human IgG1, V domains shown)
VH: EVQLVESGGGLVQPGGSLRLSCAASGFSLSSHSLGWVRQAPGKGLEWIGDIRSGGSAYYANWAKGRFTISRDNSKNTLYLQMNSLRAEDTAVYFCTRTNGPSDLTNRLDLWGQGTLVTVSS
VL: QVLTQSPSSLSASVGDRVTINCQASQSLYNNENLAWFQQKPGKVPKRLIYGASTLASGVSSRFSGSGSGTEFTLTISSLQCEDFAIYYCLGEFSCGSADCFAFGGGTKVEIK
Consider B3, for which the binding entry (with CAPRIN-1 protein; in experiment [1]) was “binds” in each case.

B4: Conjugate 171 (antibody, human IgG1, V domains shown)
VH: EVQLVESGGGLVQPGGSLRLSCAASGFSLSSHSLGWVRQAPGKGLEWIGDIRSGGSAYYANWAKGRFTISRDNSKNTLYLQMNSLRAEDTAVYYCTRTNGPSDLTNRLDLWGQGTLVTVSS
VL: QVLTQSPSSLSASVGDRVTINCQASQSLYNNENLAWFQQKPGKVPKRLIYGASTLASGVSSRFSGSGSGTEFTLTISSLQCEDFAIYYCLGEFSCGSADCFAFGGGTKVEIK
For the molecule B4, the binding result (with CAPRIN-1 protein; in experiment [1]) was “binds” each time.

B5: Conjugate 139 (antibody, human IgG1, V domains shown)
VH: EVQLVESGGGLVQPGGSLRLSCAASGFSLSSHSLGWVRQAPGKGLEWIGDIRSGGSAYYANWAKGRFTISRDNSKNTLYLQMNSLRAEDTAVYFCTRTNGPSDLTNRLDLWGQGTLVTVSS
VL: QVLTQSPSSLSASVGDRVTINCQASQSLYNNENLAWFQQKPGKVPKRLIYGASTLASGVSSRFSGSGSGTEFTLTISSLQCEDFAIYYCLGEFSCGSADCFAFGGGTKVEIK
Take B5: the binding entry (with CAPRIN-1 protein; in experiment [1]) was “binds” each time.

B6: Conjugate 143 (antibody, human IgG1, V domains shown)
VH: EVQLVESGGGLVQPGGSLRLSCAASGFSLSSHSLGWVRQAPGKGLEWIGDIRSGGSAYYANWAKGRFTISRDNSKNTLYLQMNSLRAEDTAVYFCTRTNGPSDLTNRLDLWGQGTLVTVSS
VL: EQVLTQSPSSLSASVGDRVTINCQASQSLYNNENLAWFQQKPGKVPKRLIYGASTLASGVSSRFSGSGSGTEFTLTISNLQPEDFAIYYCLGEFSCGSADCFAFGGGTKVEIK
In the case of B6, the binding entry (with CAPRIN-1 protein; in experiment [1]) was “binds” in each case.

B7: Conjugate 141 (antibody, human IgG1, V domains shown)
VH: EVQLVESGGGLVQPGGSLRLSCAASGFSLSSHSLGWVRQAPGKGLEWIGDIRSGGSAYYANWAKGRFTISRDNSKNTLYLQMNSLRAEDTAVYFCTRTNGPSDLTNRLDLWGQGTLVTVSS
VL: EIVLTQSPSSLSASVGDRVTINCQASQSLYNNENLAWFQQKPGKVPKRLIYGASTLASGVSSRFSGSGSGTEFTLTISNLQPEDFATYYCLGEFSCGSADCFAFGGGTKVEIK
With B7, the binding entry (with CAPRIN-1 protein; in experiment [1]) was “binds” each time.

B8: Conjugate 173 (antibody, human IgG1, V domains shown)
VH: EVQLVESGGGLVQPGGSLRLSCAASGFSLSSHSLGWVRQAPGKGLEWIGDIRSGGSAYYANWAKGRFTISRDNSKNTLYLQMNSLRAEDTAVYYCTRTNGPSDLTNRLDLWGQGTLVTVSS
VL: EQVLTQSPSSLSASVGDRVTINCQASQSLYNNENLAWFQQKPGKVPKRLIYGASTLASGVSSRFSGSGSGTEFTLTISNLQPEDFAIYYCLGEFSCGSADCFAFGGGTKVEIK
In the case of B8, the binding result (in the experiment with CAPRIN-1 protein; in experiment [1]) was “binds” each time.

B9: Conjugate 142 (antibody, human IgG1, V domains shown)
VH: EVQLVESGGGLVQPGGSLRLSCAASGFSLSSHSLGWVRQAPGKGLEWIGDIRSGGSAYYANWAKGRFTISRDNSKNTLYLQMNSLRAEDTAVYYCTRTNGPSDLTNRLDLWGQGTLVTVSS
VL: EIVLTQSPSSLSASVGDRVTINCQASQSLYNNENLAWFQQKPGKVPKRLIYGASTLASGVSSRFSGSGSGTEFTLTISNLQPEDFATYYCLGEFSCGSADCFAFGGGTKVEIK
In the case of B9, the binding entry (in the experiment with CAPRIN-1 protein; in experiment [1]) was “binds” throughout.

B10: Conjugate 140 (antibody, human IgG1, V domains shown)
VH: EVQLVESGGGLVQPGGSLRLSCAASGFSLSSHSLGWVRQAPGKGLEWIGDIRSGGSAYYANWAKGRFTISRDNSKNTLYLQMNSLRAEDTAVYYCTRTNGPSDLTNRLDLWGQGTLVTVSS
VL: EQVLTQSPSSLSASVGDRVTINCQASQSLYNNENLAWFQQKPGKVPKRLIYGASTLASGVSSRFSGSGSGTEFTLTISNLQPEDFAIYYCLGEFSCGSADCFAFGGGTKVEIK
In the case of B10, the binding entry (with CAPRIN-1 protein; in experiment [1]) was “binds” each time.

B11: Conjugate 148 (antibody, human IgG1, V domains shown)
VH: GAELVRSGASVKMSCKASGYSFTDYNMYWVKQTPGQGLEWIGYIYPGNGGTNYNQKFKGKATLTADTSSSTAYMQISSLTSEDSAVYFCARDYDDGGYAMDYWGQGTTVTVSS
VL: DIQMTQSPASLSASVGETVTITCRASGNIHNYLTWYQQKQGKSPQLLVYNAKTLADGVPSRFSGSGSGTQYSLKINRLQPEDFGSYYCQHFWNIPWTFGGGTKLNSR
As to B11, the binding entry (with CAPRIN-1 protein; in experiment [1]) was “binds” in each case.

B12: Conjugate 132 (antibody, human IgG1, V domains shown)
VH: GPDLVKPGASVKISCKASGYSFTAYYMHWVKQSHGKSLEWIGRVNPNNGGTTYNQKFKGKAILTVDKSSSTAYMELRSLTFEDSAVYYCARRIYYGYFDYWGQGTTVTVSS
VL: AFFAVSLGQRATISCKASQSVDYDGDSYMNWYQQKPGQPPKLLIYVASNLESGVPARFSGSGSGTDFTLNIHPVEEEDAATYYCQQSNEDPYTFGGGTKLEIKQ
On to B12, for which the binding result (in the experiment with CAPRIN-1 protein; in experiment [1]) was “binds” each time.

B13: Conjugate 165 (antibody, human IgG1, V domains shown)
VH: GPDLVKPGASVKISCKASGYSFTAYYMHWVKQSHGKSLEWIGRVNPNNGGTTYNQKFKGKAILTVDKSSSTAYMELRSLTFEDSAVYYCARRIYYGYFDYWGQGTTVTVSS
VL: AFFAVSLGQRATISCKASQSVDYDGDSYMNWYQQKPGQPPKLLIYVASNLESGVPARFSGSGSGTDFTLNIHPVEEEDAATYYCQQSNEDPYTFGGGTKLEIKQ
As for B13, the binding result (with CAPRIN-1 protein; in experiment [1]) was “binds” throughout.

B14: Conjugate 154 (antibody, human IgG1, V domains shown)
VH: EVQLHQFGAELVKPGASVKISCKASGYTFTDYNMDWVKQSHGKSLEWIGDINPNYDSTSYNQKFKGKATLTVDKSSSTAYMELRSLTSEDTAVYYCARSRSYDYEGFAYWGQGTLVTVSA
VL: DIQMTQSPASLSASVGETVTITCRASGNIHNYLAWYQQKQGKSPQLLVYNAKTLADGVPSRFSGSGSGTQYSLKINSLQPEDFGSYYCQHFWSTLTFGAGTKLELKR
With B14, the binding entry (in the experiment with CAPRIN-1 protein; in experiment [1]) was “binds” throughout.

B15: Conjugate 144 (antibody, human IgG1, V domains shown)
VH: AVTLDESGGGLQTPGGALSLVCKASGFTFSGYDMLWVRQAPGKGLEWVAGIGSTGGGTDYGAAVKGRATISRDNGQSTVRLQLNNLRAEDTATYYCAKVAGGCNSGYCRDSPGSIDAWGHGTEVIVS
VL: AVTQQPASVSANPGETVKITCSGGGSRNYYGWYQQKSPGSVPVTVIYYDDQRPSNIPSRFSGALSGSTSTLTITGVQADDEAVYFCGSADSNTYEGSFGAGTTLTVL
For B15, the binding result (with CAPRIN-1 protein; in experiment [1]) was “binds” throughout.

For the origin of these results see patent publication US20250249092A1 (TORAY INDUSTRIES, published 2025).
